PubChem BioAssay AID1224826, NIAID | 2016
The whole screen tested about 17,000 reagents; this is a part drawn at random. In the full data, about 1,110 (6.6%) are marked active. 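Active means lowered or raised reporter signal; replicate intensities are raw and not normalised per plate.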 Not all columns of the deposit are shown.

- Assay: 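Genes that change LPS-induced Tnf promoter activity in mouse macrophages when knocked down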 (primary screen)
- Cells: RAW264.7 G9 macrophages from mouse bearing reporters for p65 (GFP) and the Tnf promoter (mCherry)
- Knock-down reagent: siRNA pool against mouse genes, 100 nM
- Duration: 16 h of LPS stimulation, after 2 days of siRNA transfection
- Conditions: bacterial lipopolysaccharide (Salmonella minnesota R595), 10 ng/ml
- Measured: 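Nuclear mCherry signal of the Tnf promoter reporter measured by imaging after background removal, scaled to each plate median and turned into robust z-scores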
- Reading the numbers: Tnf reporter robust z-score: higher = stronger Tnf promoter reporter signal after LPS
- Active means: 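a well counts as active at a score of -1.3 or below (Tlr4 knock-down control median) or above 3 (raised signal); controls and wells holding fewer than 50 cells are excluded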
- Calls: active = Tnf reporter clearly lowered or raised; inactive = no clear change in Tnf reporter

The first 2 records as a preview:
target | Tnf reporter robust z-score | fewer than 50 cells in well | activity call
Zbtb39 | 0.58 | enough cells in well | inactive
Cga | 1.32 | enough cells in well | inactive

Main list, from the start:
target | Tnf reporter robust z-score | fewer than 50 cells in well | activity call
Zbtb39 | 0.58 | enough cells in well | inactive
Cga | 1.32 | enough cells in well | inactive
Trp53inp2 | 2.93 | enough cells in well | inactive
Zfp317 | 1.33 | enough cells in well | inactive
Il1rn | -0.9 | enough cells in well | inactive
Gstk1 | 0.49 | enough cells in well | inactive
Gpr161 | -0.73 | enough cells in well | inactive
Tcf4 | -0.49 | enough cells in well | inactive
Smg6 | 0.08 | enough cells in well | inactive
Marveld2 | -1.3 | enough cells in well | active
Ndst3 | -0.58 | enough cells in well | inactive
Taf4 | 1.08 | enough cells in well | inactive
Hrc | -0.93 | enough cells in well | inactive
Tas2r109 | -0.03 | enough cells in well | inactive
Npy1r | 1.59 | enough cells in well | inactive
Reep3 | -0.66 | enough cells in well | inactive
Tlr4 | -1.31 | enough cells in well | active
Slc24a1 | 0.16 | enough cells in well | inactive
Dera | -0.12 | enough cells in well | inactive
Zfp526 | 0.17 | enough cells in well | inactive
4933414I15Rik | – | fewer than 50 cells per well; well left out of calls | inactive
Serpinb7 | 0.14 | enough cells in well | inactive
Rims3 | 2.29 | enough cells in well | inactive
Traf3ip2 | 0.12 | enough cells in well | inactive
Fcer1g | -0.46 | enough cells in well | inactive
Sds | 1.66 | enough cells in well | inactive
Rnpep | -0.12 | enough cells in well | inactive
Gsc2 | -1.78 | enough cells in well | active
Dbil5 | -1.03 | enough cells in well | inactive
Ttyh3 | 2.04 | enough cells in well | inactive
Med7 | -0.1 | enough cells in well | inactive
Csrnp3 | – | fewer than 50 cells per well; well left out of calls | inactive
Or10g6 | 1.33 | enough cells in well | inactive
Popdc2 | 1.04 | enough cells in well | inactive
Saa3 | 0.74 | enough cells in well | inactive
Sh3tc1 | -0.7 | enough cells in well | inactive
Mnat1 | 0.32 | enough cells in well | inactive
Uox | – | fewer than 50 cells per well; well left out of calls | inactive
Ifna13 | 0.25 | enough cells in well | inactive
Stk38 | 1.14 | enough cells in well | inactive
